# Measurements reported in the supplement of paper PMC8728848.
# Some of the results follow.
# Assays:
# Assay in all cases: glycan array binding signal (z-score within array); higher = stronger binding
# Details in all cases: glycan notation: IUPAC condensed, linker removed
# [1] = molecular target: GlcNAc(b1-4)GlcNAc(b1-4)GlcNAc(b1-4)GlcNAc(b1-4)GlcNAc(b1-4)GlcNAc
# Procedure, shortened: (§1)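 Arrays were curated from the Consortium for Functional Glycomics database, 3228 in total, and kept only where the protein sequence was available. Binding is expressed as a within-array Z-score. This score was averaged across arrays of the same protein sequence at different concentrations or buffers and across linkers, and negative values can be read as non-binding.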
# [2] = molecular target: GlcNAc(b1-4)[GlcNAc(b1-6)]GalNAc
# Procedure, shortened: as §1
# [3] = molecular target: GlcNAc(b1-6)Gal(b1-4)GlcNAc
# Procedure, shortened: as §1
# GlcNAc(b1-6)GalNAc = molecular target: GlcNAc(b1-6)GalNAc
# Procedure, shortened: as §1
# [4] = molecular target: GlcNAc6S(b1-3)Gal(b1-4)GlcNAc
# Procedure, shortened: as §1
# Kdn(a2-3)Gal(b1-3)GalNAc = molecular target: Kdn(a2-3)Gal(b1-3)GalNAc
# Procedure, shortened: as §1
# Kdn(a2-3)Gal(b1-3)GlcNAc = molecular target: Kdn(a2-3)Gal(b1-3)GlcNAc
# Procedure, shortened: as §1
# Kdn(a2-3)Gal(b1-4)Glc = molecular target: Kdn(a2-3)Gal(b1-4)Glc
# Procedure, shortened: as §1
# Kdn(a2-3)Gal(b1-4)GlcNAc = molecular target: Kdn(a2-3)Gal(b1-4)GlcNAc
# Procedure, shortened: as §1
# [5] = molecular target: Kdn(a2-3)Gal(b1-4)[Fuc(a1-3)]GlcNAc
# Procedure, shortened: as §1
# Kdn(a2-6)Gal(b1-4)GlcNAc = molecular target: Kdn(a2-6)Gal(b1-4)GlcNAc
# Procedure, shortened: as §1
# [6] = molecular target: Man(a1-2)Man(a1-2)Man(a1-3)Man
# Procedure, shortened: as §1
# [7] = molecular target: Man(a1-2)Man(a1-2)Man(a1-6)[Man(a1-3)]Man
# Procedure, shortened: as §1
# Man(a1-2)Man(a1-3)Man = molecular target: Man(a1-2)Man(a1-3)Man
# Procedure, shortened: as §1
# [8] = molecular target: Man(a1-2)Man(a1-3)[Man(a1-2)Man(a1-6)]Man
# Procedure, shortened: as §1
# [9] = molecular target: Man(a1-2)Man(a1-3)[Man(a1-2)Man(a1-6)]Man(a1-6)[Man(a1-2)Man(a1-2)Man(a1-3)]Man
# Procedure, shortened: as §1
# [10] = molecular target: Man(a1-2)Man(a1-3)[Man(a1-2)Man(a1-6)]Man(a1-6)[Man(a1-2)Man(a1-2)Man(a1-3)]Man(b1-4)GlcNAc(b1-4)GlcNAc
# Procedure, shortened: as §1
# [11] = molecular target: Man(a1-2)Man(a1-3)[Man(a1-6)]Man(a1-6)[Man(a1-2)Man(a1-3)]Man(b1-4)GlcNAc(b1-4)GlcNAc
# Procedure, shortened: as §1
# [12] = molecular target: Man(a1-2)Man(a1-6)[Man(a1-3)]Man(a1-6)[Man(a1-2)Man(a1-2)Man(a1-3)]Man
# Procedure, shortened: as §1
# [13] = molecular target: Man(a1-2)Man(a1-6)[Man(a1-3)]Man(a1-6)[Man(a1-2)Man(a1-2)Man(a1-3)]Man(b1-4)GlcNAc(b1-4)GlcNAc
# Procedure, shortened: as §1
# Man(a1-3)[Man(a1-6)]Man = molecular target: Man(a1-3)[Man(a1-6)]Man
# Procedure, shortened: as §1
# [14] = molecular target: Man(a1-3)[Man(a1-6)]Man(a1-6)[Man(a1-2)Man(a1-3)]Man(b1-4)GlcNAc(b1-4)GlcNAc
# Procedure, shortened: as §1
# [15] = molecular target: Man(a1-3)[Man(a1-6)]Man(a1-6)[Man(a1-3)]Man
# Procedure, shortened: as §1
# [16] = molecular target: Man(a1-3)[Man(a1-6)]Man(a1-6)[Man(a1-3)]Man(b1-4)GlcNAc(b1-4)GlcNAc
# Procedure, shortened: as §1
# [17] = molecular target: Man(a1-3)[Man(a1-6)]Man(b1-4)GlcNAc(b1-4)GlcNAc
# Procedure, shortened: as §1
# [18] = molecular target: Man(a1-3)[Man(a1-6)]Man(b1-4)GlcNAc(b1-4)[Fuc(a1-6)]GlcNAc
# Procedure, shortened: as §1
# Man(a1-6)Man = molecular target: Man(a1-6)Man
# Procedure, shortened: as §1
# Man(b1-4)GlcNAc = molecular target: Man(b1-4)GlcNAc
# Procedure, shortened: as §1
# MurNAc(b1-4)GlcNAc = molecular target: MurNAc(b1-4)GlcNAc
# Procedure, shortened: as §1
# Neu5Ac(a2-3)Gal = molecular target: Neu5Ac(a2-3)Gal
# Procedure, shortened: as §1
# [19] = molecular target: Neu5Ac(a2-3)Gal(b1-3)GalNAc
# Procedure, shortened: as §1
# [20] = molecular target: Neu5Ac(a2-3)Gal(b1-3)GalNAc(b1-3)Gal(a1-4)Gal(b1-4)Glc
# Procedure, shortened: as §1
# [21] = molecular target: Neu5Ac(a2-3)Gal(b1-3)GalNAc(b1-4)Gal(b1-4)Glc
# Procedure, shortened: as §1
# [22] = molecular target: Neu5Ac(a2-3)Gal(b1-3)GalNAc(b1-4)[Neu5Ac(a2-3)]Gal(b1-4)Glc
# Procedure, shortened: as §1
# [23] = molecular target: Neu5Ac(a2-3)Gal(b1-3)GalNAc(b1-4)[Neu5Ac(a2-8)Neu5Ac(a2-3)]Gal(b1-4)Glc
# Procedure, shortened: as §1
# [24] = molecular target: Neu5Ac(a2-3)Gal(b1-3)GalNAc6S
# Procedure, shortened: as §1
# [25] = molecular target: Neu5Ac(a2-3)Gal(b1-3)GlcNAc
# Procedure, shortened: as §1
# [26] = molecular target: Neu5Ac(a2-3)Gal(b1-3)GlcNAc(b1-2)Man
# Procedure, shortened: as §1
# [27] = molecular target: Neu5Ac(a2-3)Gal(b1-3)GlcNAc(b1-2)Man(a1-3)[GlcNAc(b1-4)][Neu5Ac(a2-3)Gal(b1-3)GlcNAc(b1-2)Man(a1-6)]Man(b1-4)GlcNAc(b1-4)GlcNAc
# Procedure, shortened: as §1
# [28] = molecular target: Neu5Ac(a2-3)Gal(b1-3)GlcNAc(b1-2)Man(a1-3)[Neu5Ac(a2-3)Gal(b1-3)GlcNAc(b1-2)Man(a1-6)]Man(b1-4)GlcNAc(b1-4)GlcNAc
# Procedure, shortened: as §1
# [29] = molecular target: Neu5Ac(a2-3)Gal(b1-3)GlcNAc(b1-2)[Neu5Ac(a2-3)Gal(b1-3)GlcNAc(b1-4)]Man(a1-6)[Neu5Ac(a2-3)Gal(b1-3)GlcNAc(b1-2)Man(a1-3)]Man(b1-4)GlcNAc(b1-4)GlcNAc
# Procedure, shortened: as §1
# [30] = molecular target: Neu5Ac(a2-3)Gal(b1-3)GlcNAc(b1-3)Gal(b1-3)GlcNAc
# Procedure, shortened: as §1
# [31] = molecular target: Neu5Ac(a2-3)Gal(b1-3)GlcNAc(b1-3)Gal(b1-4)GlcNAc
# Procedure, shortened: as §1
# [32] = molecular target: Neu5Ac(a2-3)Gal(b1-3)GlcNAc(b1-3)GalNAc
# Procedure, shortened: as §1
# [33] = molecular target: Neu5Ac(a2-3)Gal(b1-3)GlcNAc(b1-6)GalNAc
# Procedure, shortened: as §1
binder,measurement,setting,value
"SAOUHSC 02783 (Staphylococcus aureus), Q5HD69 (protein) MIHSKKLTLGICLVLLIILIVGYVIMTKTNGRNAQIKDTFNQTLKLYPTKNLDDFYDKEGFRDQEFKKGDKGTWIVNSEMVIEPKGKDMETRGMVLYINRNTRTTKGYYFISEMTDDSNGRPKDDEKRYPVKMEHNKIIPTKPLPNDKLKKEIENFKFFVQYGNFKDINDYKDGDISYNPNVPSYSAKYQLNNDDYNVQQLRKRYDIPTKQAPKLLLKGDGDLKGSSVGSRSLEFTFVENKEENIYFTDSVQYTPSEDTRYESN",glycan array binding signal (z-score),[1],1.17
same,glycan array binding signal (z-score),[2],0.009
same,glycan array binding signal (z-score),[3],0.133
same,glycan array binding signal (z-score),GlcNAc(b1-6)GalNAc,0.195
same,glycan array binding signal (z-score),[4],-0.38
same,glycan array binding signal (z-score),Kdn(a2-3)Gal(b1-3)GalNAc,0.785
same,glycan array binding signal (z-score),Kdn(a2-3)Gal(b1-3)GlcNAc,0.199
same,glycan array binding signal (z-score),Kdn(a2-3)Gal(b1-4)Glc,-0.879
same,glycan array binding signal (z-score),Kdn(a2-3)Gal(b1-4)GlcNAc,0.212
same,glycan array binding signal (z-score),[5],-0.039
same,glycan array binding signal (z-score),Kdn(a2-6)Gal(b1-4)GlcNAc,-0.224
same,glycan array binding signal (z-score),[6],-1.16
same,glycan array binding signal (z-score),[7],-0.389
same,glycan array binding signal (z-score),Man(a1-2)Man(a1-3)Man,-1.04
same,glycan array binding signal (z-score),[8],-2.14
same,glycan array binding signal (z-score),[9],1.26
same,glycan array binding signal (z-score),[10],-0.676
same,glycan array binding signal (z-score),[11],0.494
same,glycan array binding signal (z-score),[12],-1.35
same,glycan array binding signal (z-score),[13],-0.452
same,glycan array binding signal (z-score),Man(a1-3)[Man(a1-6)]Man,-0.081
same,glycan array binding signal (z-score),[14],1.09
same,glycan array binding signal (z-score),[15],0.139
same,glycan array binding signal (z-score),[16],0.016
same,glycan array binding signal (z-score),[17],-0.854
same,glycan array binding signal (z-score),[18],-0.045
same,glycan array binding signal (z-score),Man(a1-6)Man,-1.7
same,glycan array binding signal (z-score),Man(b1-4)GlcNAc,-0.652
same,glycan array binding signal (z-score),MurNAc(b1-4)GlcNAc,-0.233
same,glycan array binding signal (z-score),Neu5Ac(a2-3)Gal,-0.171
same,glycan array binding signal (z-score),[19],-0.054
same,glycan array binding signal (z-score),[20],-0.302
same,glycan array binding signal (z-score),[21],-0.302
same,glycan array binding signal (z-score),[22],0.032
same,glycan array binding signal (z-score),[23],-0.869
same,glycan array binding signal (z-score),[24],-0.29
same,glycan array binding signal (z-score),[25],-0.344
same,glycan array binding signal (z-score),[26],-0.483
same,glycan array binding signal (z-score),[27],-0.381
same,glycan array binding signal (z-score),[28],6.23
same,glycan array binding signal (z-score),[29],-0.866
same,glycan array binding signal (z-score),[30],-0.397
same,glycan array binding signal (z-score),[31],1.36
same,glycan array binding signal (z-score),[32],0.712
same,glycan array binding signal (z-score),[33],-0.175

# Random excerpt: 3 records from the list.
binder,measurement,setting,value
"SAOUHSC 02783 (Staphylococcus aureus), Q5HD69 (protein) MIHSKKLTLGICLVLLIILIVGYVIMTKTNGRNAQIKDTFNQTLKLYPTKNLDDFYDKEGFRDQEFKKGDKGTWIVNSEMVIEPKGKDMETRGMVLYINRNTRTTKGYYFISEMTDDSNGRPKDDEKRYPVKMEHNKIIPTKPLPNDKLKKEIENFKFFVQYGNFKDINDYKDGDISYNPNVPSYSAKYQLNNDDYNVQQLRKRYDIPTKQAPKLLLKGDGDLKGSSVGSRSLEFTFVENKEENIYFTDSVQYTPSEDTRYESN",glycan array binding signal (z-score),[14],1.09
same,glycan array binding signal (z-score),[11],0.494
same,glycan array binding signal (z-score),[7],-0.389
